No constants are given. Whether binding was seen depends on the method and setting. Some entries that bind do so weakly or less than the wild type.
Molecular target: Fission-yeast cohesin tetramer (Psm1, Psm3, Rad21 and Psc3) (fission yeast) (UniProt O94383+O42649+P30776+O13816)
Assay: co-IP; recombinant cohesin tetramer immunoprecipitated via Rad21-HA with Pds5 alone or Wapl alone added; bound proteins by western blotting; both purified

Amino acid sequences for entries named in this document (tags omitted). A change or cut given only in a name is not applied to a line headed by its entry.
UniProt O94383: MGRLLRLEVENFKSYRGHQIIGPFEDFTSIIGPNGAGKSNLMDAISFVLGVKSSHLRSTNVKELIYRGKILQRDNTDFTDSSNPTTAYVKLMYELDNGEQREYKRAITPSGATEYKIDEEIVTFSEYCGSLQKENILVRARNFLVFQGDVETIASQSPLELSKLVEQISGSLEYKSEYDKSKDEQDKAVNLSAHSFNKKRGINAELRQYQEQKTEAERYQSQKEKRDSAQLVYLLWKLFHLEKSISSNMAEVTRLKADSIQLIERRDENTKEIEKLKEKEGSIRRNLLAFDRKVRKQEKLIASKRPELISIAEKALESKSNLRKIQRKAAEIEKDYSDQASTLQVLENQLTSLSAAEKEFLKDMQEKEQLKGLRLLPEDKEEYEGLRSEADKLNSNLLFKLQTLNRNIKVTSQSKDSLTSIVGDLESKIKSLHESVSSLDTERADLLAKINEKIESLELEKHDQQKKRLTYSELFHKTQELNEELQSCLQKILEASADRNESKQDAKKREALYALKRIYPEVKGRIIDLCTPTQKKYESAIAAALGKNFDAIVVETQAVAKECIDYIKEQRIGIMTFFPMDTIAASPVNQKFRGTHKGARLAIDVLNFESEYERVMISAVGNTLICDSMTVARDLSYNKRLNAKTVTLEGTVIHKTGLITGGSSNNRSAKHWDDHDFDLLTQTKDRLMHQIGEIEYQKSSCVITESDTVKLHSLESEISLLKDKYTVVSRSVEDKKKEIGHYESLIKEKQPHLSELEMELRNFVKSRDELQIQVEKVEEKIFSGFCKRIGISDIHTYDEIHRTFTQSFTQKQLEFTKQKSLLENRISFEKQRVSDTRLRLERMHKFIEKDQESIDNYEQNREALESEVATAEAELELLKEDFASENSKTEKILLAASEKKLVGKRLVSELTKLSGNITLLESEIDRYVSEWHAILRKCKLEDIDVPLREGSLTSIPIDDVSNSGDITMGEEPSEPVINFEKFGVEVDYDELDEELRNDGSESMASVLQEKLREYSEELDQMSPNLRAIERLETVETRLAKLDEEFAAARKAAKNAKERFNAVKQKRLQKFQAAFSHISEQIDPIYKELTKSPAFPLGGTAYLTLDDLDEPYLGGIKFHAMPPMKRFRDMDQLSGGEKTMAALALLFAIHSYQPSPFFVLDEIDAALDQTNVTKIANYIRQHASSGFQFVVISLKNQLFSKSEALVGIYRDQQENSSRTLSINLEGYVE
UniProt O42649: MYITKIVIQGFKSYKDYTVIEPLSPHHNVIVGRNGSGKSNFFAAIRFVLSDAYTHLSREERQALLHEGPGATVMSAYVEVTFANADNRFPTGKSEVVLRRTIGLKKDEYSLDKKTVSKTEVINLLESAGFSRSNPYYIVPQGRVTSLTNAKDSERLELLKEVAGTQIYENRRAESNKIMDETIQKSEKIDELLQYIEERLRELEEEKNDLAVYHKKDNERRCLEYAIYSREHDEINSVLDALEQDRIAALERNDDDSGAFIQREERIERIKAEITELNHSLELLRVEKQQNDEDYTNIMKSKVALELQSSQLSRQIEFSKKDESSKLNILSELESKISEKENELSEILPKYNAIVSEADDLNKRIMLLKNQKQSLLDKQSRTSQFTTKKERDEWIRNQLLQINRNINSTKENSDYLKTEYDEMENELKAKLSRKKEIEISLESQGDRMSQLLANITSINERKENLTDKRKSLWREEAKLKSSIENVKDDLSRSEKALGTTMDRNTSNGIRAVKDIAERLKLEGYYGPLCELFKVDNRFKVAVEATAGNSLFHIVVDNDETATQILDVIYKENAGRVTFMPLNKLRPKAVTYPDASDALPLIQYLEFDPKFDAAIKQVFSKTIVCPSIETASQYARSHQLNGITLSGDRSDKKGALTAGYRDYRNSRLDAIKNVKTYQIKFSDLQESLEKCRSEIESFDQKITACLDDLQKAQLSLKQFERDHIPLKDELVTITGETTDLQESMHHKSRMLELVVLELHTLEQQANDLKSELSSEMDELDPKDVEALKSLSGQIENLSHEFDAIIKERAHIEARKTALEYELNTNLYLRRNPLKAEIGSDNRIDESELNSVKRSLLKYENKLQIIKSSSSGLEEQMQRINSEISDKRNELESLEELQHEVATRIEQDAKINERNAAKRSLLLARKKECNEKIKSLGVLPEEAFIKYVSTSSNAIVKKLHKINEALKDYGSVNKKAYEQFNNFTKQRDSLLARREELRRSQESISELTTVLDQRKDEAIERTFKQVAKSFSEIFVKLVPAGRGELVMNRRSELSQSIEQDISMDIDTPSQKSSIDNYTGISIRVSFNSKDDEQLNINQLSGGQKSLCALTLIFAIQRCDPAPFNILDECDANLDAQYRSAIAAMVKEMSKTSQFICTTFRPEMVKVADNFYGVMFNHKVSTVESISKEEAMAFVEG
UniProt P30776: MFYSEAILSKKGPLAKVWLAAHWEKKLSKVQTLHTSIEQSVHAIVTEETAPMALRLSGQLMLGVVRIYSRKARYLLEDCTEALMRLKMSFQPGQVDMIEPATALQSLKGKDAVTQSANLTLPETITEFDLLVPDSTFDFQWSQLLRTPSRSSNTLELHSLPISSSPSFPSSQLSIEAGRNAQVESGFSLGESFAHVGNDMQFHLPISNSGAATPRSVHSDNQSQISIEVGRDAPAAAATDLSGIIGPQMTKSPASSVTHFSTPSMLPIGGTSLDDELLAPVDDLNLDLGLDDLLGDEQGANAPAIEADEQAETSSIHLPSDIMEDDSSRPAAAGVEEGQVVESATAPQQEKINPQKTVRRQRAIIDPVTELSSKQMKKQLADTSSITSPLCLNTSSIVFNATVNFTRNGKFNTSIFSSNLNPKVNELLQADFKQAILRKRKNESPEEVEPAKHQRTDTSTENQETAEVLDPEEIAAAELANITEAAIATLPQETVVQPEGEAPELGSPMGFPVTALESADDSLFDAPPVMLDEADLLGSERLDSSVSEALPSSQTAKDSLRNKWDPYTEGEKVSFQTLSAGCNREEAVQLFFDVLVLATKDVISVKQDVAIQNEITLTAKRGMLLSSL
UniProt O13816: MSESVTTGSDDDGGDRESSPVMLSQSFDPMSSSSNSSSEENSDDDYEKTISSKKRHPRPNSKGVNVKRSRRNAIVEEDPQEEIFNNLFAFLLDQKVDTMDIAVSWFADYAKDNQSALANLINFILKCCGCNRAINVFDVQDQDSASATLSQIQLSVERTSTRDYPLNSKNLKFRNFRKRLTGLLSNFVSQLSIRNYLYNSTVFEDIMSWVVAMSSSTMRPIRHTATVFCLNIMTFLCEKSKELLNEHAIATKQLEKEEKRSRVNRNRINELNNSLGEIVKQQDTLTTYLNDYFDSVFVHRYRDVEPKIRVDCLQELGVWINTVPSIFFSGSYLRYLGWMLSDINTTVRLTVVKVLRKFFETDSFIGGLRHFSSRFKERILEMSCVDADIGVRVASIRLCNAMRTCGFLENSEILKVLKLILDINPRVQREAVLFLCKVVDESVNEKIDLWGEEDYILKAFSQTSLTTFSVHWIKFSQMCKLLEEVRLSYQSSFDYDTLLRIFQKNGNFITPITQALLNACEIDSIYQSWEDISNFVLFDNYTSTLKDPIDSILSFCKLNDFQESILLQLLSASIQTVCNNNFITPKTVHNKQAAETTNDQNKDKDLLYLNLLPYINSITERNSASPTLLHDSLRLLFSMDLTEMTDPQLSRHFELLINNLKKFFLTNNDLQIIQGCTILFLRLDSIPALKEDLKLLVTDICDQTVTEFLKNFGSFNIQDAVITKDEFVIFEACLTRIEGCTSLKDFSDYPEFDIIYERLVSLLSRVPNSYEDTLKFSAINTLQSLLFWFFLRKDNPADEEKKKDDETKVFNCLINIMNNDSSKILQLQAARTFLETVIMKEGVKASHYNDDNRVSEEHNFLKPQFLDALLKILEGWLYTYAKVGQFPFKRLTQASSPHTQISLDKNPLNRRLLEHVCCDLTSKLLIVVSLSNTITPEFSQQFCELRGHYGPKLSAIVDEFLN

B1: Fission-yeast Pds5 (natural protein, fission yeast, UniProt Q9HFF5 1-1205, looked up)
chain: MIKLQFQRNIVPTHDNPLTTSEILKRLRDLLGELTSLSQDTIDRDSVLPVARSLVNNNLLHHKDKGIRSYTLCCIVELLRLCAPDAPFTLSQLEDIFQVILKILSGLMNQESTYYPQIYEILESLSNVKSAVLIVDLPNAEEFLVNIFRLFFDLARKGTTKNVEFYMLDIINQLINEINTIPAAALNILFAQLISGKGVRQTIGSSDSTNHGPAFQLARNIFHDSADRLQRYVCQYFSDIIFDSRDSLSDSMTTPEFIFSHNLVLQLWKYAPTTLLNIIPQFENELQAEQTSVRLVAIETVGLMLQDNAIWSDYPRVWSAFCGRLNDKSVACRIKCIEVASNALQNSLATSEIIENVVQMLQSKLADTDEKVRVATLKTIEQLTFETFKMQFSVQALKLMGDRLRDRKLNVRLQAIRTLSQIYNRAYQDLIDGVEYSIQMFSWIPSSLLEVFYVNDETTNAAVEICMAELVLQYLSSDTQTRLNRLFLSIKYFSEKAMRVFILLLQRQVKYSELLNYYIECCKNYNGGVMDNDEESITNKLKKVIDIISSKSSNPTLTEATFRKFAELNDRQSYKMLLQTFSIKSEYQVVLKSIKYLFKRVSETLSTASLECFRIFVYRSALFAFNKSNVHEIIQLLNEPVKYHNFLKPSEALLQHLPLIHPNIYGEVVIEVENIIVSSGIESDPKVIKALSQFSKRKKNFSIQTTTAEILRKLCLHGTQEQAKQAATIIAITETKEFKLDMITNIVENLEYNGGLPVRLMTLGQLFLYTLEEVEKVADQVTEFLVKKVIQRFPEKYDDTHNDEEWCTYEKLDNLTMCKVLAIRVLVNRLRAAAGGTEALNIGAPIIKLLKVLLMADGELSPFKNTPKISRAYLRLTASKYFLKLCSIPFYAEHIDFSSYVQISLLCQDENFDVRNLFLTKLQKQLQLKKLPISYYPLLFLTAVDPEEEIKTKASIWIRSQVAFFQKTHDFTMEYVATYLIHLLSHHPDISSIESENSLDFIAYIRFYVDTVVNSENVPIVFHLMQRIKQSYDVIEDGNNYIYVLSDMAQKILQVKSQNFGWSLTTYPKQIKLPYEILRPIPSIDEKKRIFNKIFITPKMESQIEHAIRTPVSSFAKQTTNKHANLKQKKTHSSKSDKKSSRRRKNEKRRKLNEQNPNIRNVPERSSSRFQGIRINYSEAPSSSEEISEEEEEISEEDFDEIEDL
notes: Pds5, cohesin subunit of fission yeast; Protein A was removed by protease; source: overexpressed in budding yeast, purified (IgG-agarose, Capto Q, gel filtration)
In the case of B1, the binding is reported as “binds weakly”.
